Results as given in the supplement of paper PMC5949888.
Most values lie at the floor of the assay. Slopes are relative: functional sequences can read slightly below zero.

What follows are substances tested on Saccharomyces cerevisiae PS128 hsf1 delta, HSF1(1-493) fusion (assay: growth estimate (transactivation domain function in HSF1 fusion, heat-shock survival) (a.u. (slope of normalised read count over time)); higher = stronger growth at 37°C, i.e. more transactivation activity). Conditions: library: random library.

Substance	growth estimate
RIPGNTTCLIPVGGPHDVVS	< -0.25
PVLRSASGASSELIDARLLL	< -0.25
PENDNILLTGGLKSAVSHPR	< -0.25
FAHVTLSLLKR	< -0.25
KLHRRLLIYVVMDVPPFCA	< -0.25
DSMLLSGED	< -0.25
IYQVLLGGVV	< -0.25
EPDHNLQPGDWRWYRGHRIS	< -0.25
RCSGAKIKEDRRVLGDFVCV	< -0.25
CSVYQQAEARWHVGC	< -0.25
RGPKA	< -0.25
LRGVLWVRDGGPRMSRWRES	< -0.25
DDGPH	< -0.25
WGQSPRIAVSQSSEDTHRHG	< -0.25
SFGVAFALSALIEMISQARF	< -0.25
FRHGLP	< -0.25
KTCYFSSSAR	< -0.25
VPIDYLPVLWDLP	0.0249
IPTTSAAAEKGFF	< -0.25
TGSKQRQTTGTEVCRYNRRQ	< -0.25
VISDFRCRDGS	< -0.25
SFRHG	< -0.25
GQLLDAFGKPADRSWFYSQS	< -0.25

Substance	growth estimate
AWVRLRTV	< -0.25
RSKRSAARC	< -0.25
DEGLVCDGVLERRIRYYSPV	< -0.25
KPGGNRCARTDT	< -0.25
DVRKGKLRESRRQEVD	< -0.25
TKAGAPGRPQSGGFPSRSWL	< -0.25
STAIVLYQTQRSAFPSITWF	< -0.25
KVPLCQGSARVGRSRDLFAC	< -0.25
RTPRLTFARKVRCKSVSPAL	< -0.25
FARRLVRNRQTSQDAMPETA	< -0.25
SYMQ	< -0.25
HAGWL	< -0.25
SSLLSLA	< -0.25
RMLNIRTRAYLRSLLERNDG	-0.245
VKR	< -0.25
DPH	< -0.25
EPRQCHSRIACN	< -0.25
AERRPTKV	< -0.25
RCWGQDMSLLSISVHVWVYT	< -0.25
ALRFRAPETGSALSIQTAMY	< -0.25
TVSEQA	< -0.25
NSRLARCGSGSQ	< -0.25
GRVINLVSTGRTVSSVGTIV	< -0.25

Substance	growth estimate
VEGR	< -0.25
CGRVIAGTPVRPR	< -0.25
ALM	< -0.25
NVLAYDQG	< -0.25
GSPVLGKPGRQGGQIDNSLN	< -0.25
RRCGSDNFSLVKTQPMVSAR	< -0.25
LCLHPPRQRGLRSMLRAAGK	< -0.25
PGRQHWHLASCADYRGLRPP	< -0.25
GGMA	< -0.25
RRVEL	< -0.25
PCAQGALRRYWVHGHLIFPQ	< -0.25
AQGQPVKQPRCIRGPDGRCA	< -0.25
VGHVVHHFCIEPLEDAK	< -0.25
PRTVSRLPIPRREMRISDKG	< -0.25
SGRSSLQTRGPRV	< -0.25
LRTLI	< -0.25
RVPRSPGTDTFSSSRTSCQL	< -0.25
GCLSC	< -0.25
LADWCWNV	< -0.25
PLIQSKLILEKSM	-0.243
PKMIKAV	-0.14
AMC	< -0.25
QKDGRVFIDNKRR	0.021

Random excerpt: five entries already listed
Substance	growth estimate
NVLAYDQG	< -0.25
LRTLI	< -0.25
PLIQSKLILEKSM	-0.243
LADWCWNV	< -0.25
RRVEL	< -0.25

Copied from the listing (5 entries):
Substance	growth estimate
RCSGAKIKEDRRVLGDFVCV	< -0.25
CSVYQQAEARWHVGC	< -0.25
RGPKA	< -0.25
LRGVLWVRDGGPRMSRWRES	< -0.25
DDGPH	< -0.25

(next part)

Substance	growth estimate
TRNALT	-0.246
TRRAWGALMAMFSSLALAGR	< -0.25
HRPEESGHSDPCLKFVPYVQ	< -0.25
VPVMQGIDGLALQEDFDPKV	< -0.25
DDKGPTIHVSSAISLNIR	< -0.25
CNLTVESFS	< -0.25
SMFVWDP	-0.164
LLHTL	< -0.25
VFFEREQSD	< -0.25
GDTRAAIHGGRVGECSLV	< -0.25
WTGLVDSLPSCACI	< -0.25
TRRLPGVCLKNCAKGWIPVD	< -0.25
EQVTQVSLREGLRISVMPND	< -0.25
SIWWEARCRTRGRSAFY	< -0.25
NNQCFYFH	< -0.25
LPVVC	< -0.25
ESTQGS	< -0.25
CRRAPWAARLCGGIRSSG	< -0.25
SVRFTRMTGYKRYSSRVSRA	< -0.25
WWKEKWEGKAFAVTGLNTGG	< -0.25
RLQDI	< -0.25
GPQGNASPVN	< -0.25
IQGDVTGI	< -0.25

Substance	growth estimate
CLTLCARKYRQMFSDALRIR	< -0.25
RGRVTASRSPNRMRDMDTLV	< -0.25
GLK	< -0.25
ACGCPRRALQARST	< -0.25
ADSH	< -0.25
LFYRVRCSGVQLGTEDSHCA	< -0.25
ALSSAASCVLNSIVDYLCPT	< -0.25
PTDKSELV	-0.23
RPIVDLIKRLGWRRRDYSSA	< -0.25
GSINFLITVLDRSPTVLEAP	< -0.25
PECECTA	< -0.25
SKQLTWLGGTVAIKPGLG	< -0.25
RASSISFVCEAA	< -0.25
SLGVITSPMGGLFGQLAFV	< -0.25
SMMTAAMGGTLARNTKAVIL	< -0.25
THLKAYSGNSKNGLNVDRGQ	-0.246
CEQGRPPGTSMSSEQWKCRP	< -0.25
YSRPTSDLC	< -0.25
LMGYRIEASANGW	< -0.25
VPHSCTRTNGTQKGILWYGY	< -0.25
LGQRFERSGLSEGAVKM	< -0.25
PQLGLAT	< -0.25
HSSEHVDRRRGAKRPERASV	< -0.25

Substance	growth estimate
QSRYVPGIS	< -0.25
DASFSESLSRVSLQ	< -0.25
PLLLWQQQCRITVPSTTEMG	< -0.25
VFT	< -0.25
WLYAFADAQENIVASGNVCN	-0.231
EGSSANASDERLEH	< -0.25
QLPALRKNVDNAQSRTTHRN	< -0.25
PYR	< -0.25
KCVRVILQNSDWTS	< -0.25
SDRFT	< -0.25
ASHARWGLNITECGYGQLMV	< -0.25
SVGGTEKPR	< -0.25
CEC	< -0.25
TCGQFPQDSLVSDLAA	< -0.25
SGMIWFLCIKVPGMPNVGVS	< -0.25
SCPASRG	< -0.25
RFDNISRQRAFFNPGKISVP	< -0.25
EGRSFHYRRRWRRYLGAT	< -0.25
TGVD	< -0.25
LYLGLKS	< -0.25
DRPTSVDQPRSSYGETERLW	< -0.25
CDLLRDQIELSSLEVHVGVR	< -0.25
GYGDPDVEIEFRAPRKYLFT	< -0.25

Substance	growth estimate
TVEWLRQDVRR	< -0.25
VRRLSMCSTGLPMRGPYHIV	< -0.25
SRPRLHLASPLNERIRPAC	< -0.25
DVWSARSLIEVHDS	< -0.25
HVGDVWP	< -0.25
TNAYNYIIDSGPEA	< -0.25
LVEAACKARGNRDPSKVA	< -0.25
YEDYVFKSWSFELSADSSSA	< -0.25
VGDIVLHAKLRGRQNIPRNR	< -0.25
IYLRTNPKSPVHPSYRRWLT	-0.173
VRDTRPHASRVRAIVAVVDP	< -0.25
FGYLVAFWPASRRTKLRRAA	< -0.25
EQAPL	< -0.25
HLRCVCGIENFLLMGSQSLA	< -0.25
SRPRRARGDEIGIGGCNPAS	< -0.25
PYCAELTSSMSSCN	< -0.25
NIEYVARASRA	< -0.25
HHTTMDRPGGSEWTNAP	< -0.25
TTRYLCRGMVLCSQCCRRAV	< -0.25
KYVKFHDGIASNTDRIRLC	< -0.25
LVQGPENISLGVGFHRGNRK	< -0.25
LQCSRKSPIYLPCERLLHWI	< -0.253
